Assay results taken from PubChem BioAssay AID2685 (National Center for Advancing Translational Sciences (NCATS), 2010).
The list shows a part of the results. Shown are side measurements of this screen, not its main read-out; they come without a call. The list favours compounds with an active or inconclusive main result. Potencies come from curve fits of mixed quality, noted in brackets.

Test: qHTS Assay for Lipid Storage Modulators in Drosophila S3 Cells;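 on cell number change: cells counted by Cell Tracker Red CMTPX staining in the red channel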
Conditions: BODIPY lipid droplet fluorescence, 18-24 h; for cell number change: measured here: cell count max response, cells fed with added oleic acid
Outline: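 Drosophila S3 cells loaded with oleic acid (400 uM, as added) and compounds at several concentrations; lipid droplets imaged by 488-nm laser-scanning cytometry, 500–530 nm intensity and object ratio to cell channel. Percent activity normalized to 20 uM Triacsin C.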

[1] = measured here: cell number channel AC50, cells fed with added oleic acid
[2] = measured here: lipid fluorescence (Fed channel) AC50, cells fed with added oleic acid

| Structure (SMILES) | cell number change [%] | AC50 [1] | AC50 [2] |
| --- | --- | --- | --- |
| O=C(Nc1ccc(Cl)cn1)C1CCCN1S(=O)(=O)c1ccc(Cl)cc1 (stereo unspecified) | -16 | – | – |
| O=C1[C@H]2[C@@H](c3ccc(F)cc3)N3C(=O)N(c4ccc(Br)cc4)C(=O)[C@@]3(Cc3ccccc3)[C@H]2C(=O)N1C1CCCCC1 | 51.1 | 23.1 µM [rising, partial curve] | 29.1 µM [falling, single point] |
| Fc1ccccc1-c1csc(-c2cccnc2)n1 | -11.9 | – | 29.1 µM [rising, single point] |
| COC(=O)Nc1sc2c(c1C(=O)N1CCOCC1)CCC(C)C2 (stereo unspecified) | 2.34 | – | 8.2 µM [rising, partial curve, poor fit] |
| Cn1ccnc1SCC(=O)Nc1cccc(C(F)(F)F)c1 | -1.12 | 0.0058 µM [falling, full curve, poor fit] | – |
| CCN1/C(=C/C=C/c2oc3ccc(-c4ccccc4)cc3[n+]2CC)Oc2ccc(-c3ccccc3)cc21 | -95.8 | 2.59 µM [falling, full curve] | 0.411 µM [falling, full curve] |
| O=C(COC(=O)C1CCN(C(=O)c2ccc(Cl)cc2)CC1)NC1CCS(=O)(=O)C1 (stereo unspecified) | 11.7 | – | 0.164 µM [rising, full curve, poor fit] |
| COC(=O)c1c(NC(=O)/C=C/C(=O)O)sc(C)c1-c1ccc(C(C)C)cc1 | -28.9 | 2.59 µM [falling, single point] | – |
| O=C(CSc1nc(-c2ccccc2)cs1)NCc1ccco1 | – | – | 6.51 µM [rising, single point] |
| Cc1cnc(C(=O)N2CCCC(C(=O)c3ccc(C(C)(C)C)cc3)C2)cn1 (stereo unspecified) | -17.6 | – | 0.206 µM [falling, full curve, poor fit] |
| CN(C)C(=O)c1ccc(NC(=O)CN2CCc3cc4c(cc3C2)OCCCO4)cc1 | 20.1 | – | 0.651 µM [rising, single point] |
| Cc1ccc(N2CC(C(=O)Nc3c(C)n(C)n(-c4ccccc4)c3=O)CC2=O)cc1 (stereo unspecified) | 38.5 | 2.91 µM [rising, full curve] | 9.2 µM [rising, partial curve] |
| Cc1ccc(S(=O)(=O)NCC(=O)OCC(=O)NCc2ccc3c(c2)OCO3)cc1 | -50.2 | 29.1 µM [falling, single point] | – |
| Cn1c(=O)c2c(nc(N3CCCCCC3)n2Cc2cccc3ccccc23)n(C)c1=O | – | 0.00461 µM [rising, full curve, poor fit] | – |
| CSCCC(NC(=O)c1ccccc1Cl)C(=O)Nc1cccc(S(=O)(=O)N2CCCC2)c1 (stereo unspecified) | – | – | 11.6 µM [falling, partial curve, poor fit] |
| COc1ccc(CSc2nnnn2-c2ccc(O)cc2)cc1F | 28.3 | – | – |
| Cc1ccc(S(=O)(=O)N2CCN(C(=O)CC(C)n3cncn3)CC2)cc1 (stereo unspecified) | 3.91 | – | – |
| COc1ccc(N2C(=O)CSC23CCC(C(C)(C)C)CC3)cc1 (stereo unspecified) | 64.3 | 14.6 µM [rising, partial curve, poor fit] | – |
| O=C(NC1CC1)c1cc(-c2ccc(Br)cc2)nc2ccccc12 | -5.66 | 0.0651 µM [falling, full curve, poor fit] | – |
| CCOc1cc(S(=O)(=O)NC2CC(C)(C)NC(C)(C)C2)ccc1Cl | 12.8 | – | 0.291 µM [rising, partial curve, poor fit] |

2 successive compounds already listed, quoted:

| Structure (SMILES) | cell number change [%] | AC50 [1] | AC50 [2] |
| --- | --- | --- | --- |
| Cc1cnc(C(=O)N2CCCC(C(=O)c3ccc(C(C)(C)C)cc3)C2)cn1 (stereo unspecified) | -17.6 | – | 0.206 µM [falling, full curve, poor fit] |
| CN(C)C(=O)c1ccc(NC(=O)CN2CCc3cc4c(cc3C2)OCCCO4)cc1 | 20.1 | – | 0.651 µM [rising, single point] |

The list goes on:

| Structure (SMILES) | cell number change [%] | AC50 [1] | AC50 [2] |
| --- | --- | --- | --- |
| COC(=O)Nc1ccc(OCC(=O)N2CCOCC2)cc1 | -66.7 | 1.46 µM [falling, full curve, poor fit] | – |
| Cc1ccc(C(=O)N2CCCCC2)cc1NC1=C(Cl)C(=O)N(Cc2ccccc2)C1=O | -4.82 | – | 23.1 µM [falling, single point] |
| Cc1ccccc1C(=O)NC1CCN(Cc2nnnn2Cc2ccccc2)CC1 | – | 0.13 µM [rising, full curve, poor fit] | – |
| O=C(NCCSCc1ccccc1)c1ccccc1 | -22.5 | 0.00461 µM [falling, full curve, poor fit] | 29.1 µM [rising, single point] |
| CCC(C)[C@H]1CNCCN1CCCc1cc(OC)c(OC)c(OC)c1 (stereo partly specified) | -0.874 | – | 5.17 µM [rising, full curve] |
| CN(CC(=O)Nc1ccccc1C(=O)N1CCCC1)S(=O)(=O)c1ccc(Cl)cc1 | – | 3.26 µM [rising, single point] | – |
| O=C(c1ccc2ccccc2n1)N(CCO)Cc1ccccc1 | 1.65 | – | 0.731 µM [falling, full curve, poor fit] |
| O=C(CSc1nnnn1-c1ccccc1)N1CCc2ccccc21 | 3.72 | – | 1.16 µM [rising, partial curve] |
| Cc1ccc(C(=O)Nc2ccc3c(c2)OCO3)cc1 | – | 0.517 µM [rising, single point] | 0.58 µM [rising, full curve] |
| CCCn1c(N)c(C(=O)CSc2nnc(-c3ccco3)n2Cc2ccccc2)c(=O)[nH]c1=O | -1.43 | – | – |
| CC(C)(C)C(=O)NC(=S)N1CCOCC1 | -4.72 | – | 23.1 µM [falling, single point] |
| COc1cc(CNc2ccccc2SC)cc(OC)c1OC | 0.948 | – | – |
| COc1cccc(NC(=O)c2cc(=O)c3ccccc3o2)c1 | -10.7 | – | 2.59 µM [falling, single point] |
| O=C(C1=C(O)C(=O)N(CCc2ccccc2)C1c1cccnc1)c1ccco1 (stereo unspecified) | -15.9 | – | 1.3 µM [rising, full curve, poor fit] |
| N#Cc1nc(Nc2cc(F)cc(F)c2)c2ncn(CC(F)F)c2n1 | -16 | – | – |
| O=C(O)C1CCCN1S(=O)(=O)c1ccc(Cl)c(Cl)c1 (stereo unspecified) | -35 | 1.46 µM [falling, full curve, poor fit] | 2.31 µM [falling, full curve] |
| O=C(/C=C/c1ccc([N+](=O)[O-])cc1)NC1CC2CCC1C2 (stereo unspecified) | 17.9 | – | 29.1 µM [rising, single point] |
| Cc1cc(C)c(S(=O)(=O)c2ccccc2)c(OC(=O)c2ccc(Cl)cc2Cl)n1 | -14.2 | – | – |
| O=S(=O)(NC1CCCCC1N1CCN(c2ccc(F)cc2)CC1)c1ccc(Cl)cc1 (stereo unspecified) | 23.5 | – | 29.1 µM [rising, single point] |
